Measurements reported in PubChem BioAssay AID1159584 (Peter MacCallum Cancer Centre, 2016).
In all, the deposit lists about 18,000 reagents; this is a part drawn at random. The record does not give: the amount of reagent, the time to read-out.

- Aim: 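Knock-downs that harm CDH1-null cells more than parental MCF10A cells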 (primary screen)
- System: human MCF10A breast epithelial cells, parental and CDH1-null
- Knock-down reagent: siRNA against human genes
- Measured: 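Cell viability by CellTiter-Glo ATP luminescence, each line scaled to the mean of mock wells across plates, then CDH1-null over parental ratio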
- Reading the numbers: CDH1-null / parental viability ratio: higher = CDH1-null cells survive relatively better than parental; CDH1-null viability vs mock: higher = more viable CDH1-null cells; parental viability vs mock: higher = more viable parental cells

no.	gene knocked down	PubChem SID	CDH1-null / parental viability ratio	CDH1-null viability vs mock (fraction of mock)	parental viability vs mock (fraction of mock)
1	KRT75 (keratin 75)	SID152155859	1.15	0.97	0.84
2	MST1 (macrophage stimulating 1)	SID134313787	1.08	0.65	0.6
3	AADAT (aminoadipate aminotransferase)	SID135622465	1	0.96	0.96
4	ANKMY2 (ankyrin repeat and MYND domain containing 2)	SID134317975	0.99	0.76	0.77
5	TMC7 (transmembrane channel like 7)	SID134323264	1.37	0.78	0.57
6	FAM177B (family with sequence similarity 177 member B)	SID135625091	1.19	0.7	0.59
7	UBAP2 (ubiquitin associated protein 2)	SID134317402	0.89	0.68	0.76
8	SSBP4 (single stranded DNA binding protein 4)	SID152148006	0.83	0.44	0.53
9	NLRP9 (NLR family pyrin domain containing 9)	SID134323057	0.94	0.98	1.04
10	GNG13 (G protein subunit gamma 13)	SID135624033	0.88	0.3	0.34
11	HERC2 (HECT and RLD domain containing E3 ubiquitin protein ligase 2)	SID152156673	1.09	0.94	0.86
12	KCNQ2 (potassium voltage-gated channel subfamily Q member 2)	SID152150167	1.48	0.74	0.5
13	MICALL2 (MICAL like 2)	SID152147720	0.94	0.92	0.98
14	ECHS1 (enoyl-CoA hydratase, short chain 1)	SID134314916	1.17	1.02	0.87
15	H3C6 (H3 clustered histone 6)	SID134315788	1.15	0.94	0.82
16	NOVA1 (NOVA alternative splicing regulator 1)	SID152150553	0.99	1.06	1.07
17	RAB8B (RAB8B, member RAS oncogene family)	SID152154028	0.97	0.76	0.78
18	TASL (TLR adaptor interacting with endolysosomal SLC15A4)	SID134318715	0.83	0.76	0.92
19	KCTD15 (potassium channel tetramerization domain containing 15)	SID134318458	1.24	0.99	0.8
20	TONSL (tonsoku like, DNA repair protein)	SID134317879	0.91	0.8	0.88
21	IL17RB (interleukin 17 receptor B)	SID152154993	1.04	1.01	0.97
22	RANGRF (RAN guanine nucleotide release factor)	SID134324191	1.33	0.84	0.63
23	OCLM (retired record)	SID134326882	1.13	0.88	0.78
24	FERMT1 (FERM domain containing kindlin 1)	SID134310499	0.69	0.44	0.64
25	GNB2 (G protein subunit beta 2)	SID134321190	1.11	1.05	0.95
26	SFTA2 (surfactant associated 2)	SID152155312	0.98	1.02	1.04
27	TMEM245 (transmembrane protein 245)	SID152149191	0.83	0.75	0.9
28	KLRC4 (killer cell lectin like receptor C4)	SID135622563	1.1	0.9	0.82
29	TOP2B (DNA topoisomerase II beta)	SID135620799	1	0.99	0.99
30	RNASEK (ribonuclease K)	SID152151618	0.8	0.64	0.8
31	DNAJB13 (DnaJ heat shock protein family (Hsp40) member B13)	SID134327819	0.96	0.81	0.84
32	PCSK1 (proprotein convertase subtilisin/kexin type 1)	SID134311410	1	0.53	0.53
33	ADGRG6 (adhesion G protein-coupled receptor G6)	SID135621022	0.86	0.96	1.12
34	MFGE8 (milk fat globule EGF and factor V/VIII domain containing)	SID135624212	1.18	0.86	0.73
35	AMD1 (adenosylmethionine decarboxylase 1)	SID135621878	1.29	0.88	0.68
36	LECT2 (leukocyte cell derived chemotaxin 2)	SID152150365	1.19	0.96	0.81
37	GNAO1 (G protein subunit alpha o1)	SID152151717	0.99	0.84	0.85
38	ATG14 (autophagy related 14)	SID152150529	1.24	1.14	0.92
39	DCST1 (DC-STAMP domain containing 1)	SID135623197	1.13	0.95	0.84
40	NDUFAB1 (NADH:ubiquinone oxidoreductase subunit AB1)	SID152153432	1.22	0.88	0.72
41	SPAG8 (sperm associated antigen 8)	SID152150201	1.17	1.15	0.98
42	UNC45B (unc-45 myosin chaperone B)	SID152150204	0.77	0.68	0.88
43	WDR25 (WD repeat domain 25)	SID152148431	0.89	0.64	0.72
44	NEUROD4 (neuronal differentiation 4)	SID152147650	1.04	0.56	0.54
45	PDCL (phosducin like)	SID152152832	1.07	0.88	0.82
46	TH (tyrosine hydroxylase)	SID152155061	1.04	0.93	0.89

6 neighbouring reagents already listed, quoted:
no.	gene knocked down	PubChem SID	CDH1-null / parental viability ratio	CDH1-null viability vs mock (fraction of mock)	parental viability vs mock (fraction of mock)
16	NOVA1 (NOVA alternative splicing regulator 1)	SID152150553	0.99	1.06	1.07
17	RAB8B (RAB8B, member RAS oncogene family)	SID152154028	0.97	0.76	0.78
18	TASL (TLR adaptor interacting with endolysosomal SLC15A4)	SID134318715	0.83	0.76	0.92
19	KCTD15 (potassium channel tetramerization domain containing 15)	SID134318458	1.24	0.99	0.8
20	TONSL (tonsoku like, DNA repair protein)	SID134317879	0.91	0.8	0.88
21	IL17RB (interleukin 17 receptor B)	SID152154993	1.04	1.01	0.97
